A short description of series [1]: Solubility of the compound at pH 7.4 by high throughput assay. As to conditions: buffer.
Series [2] can be described thus: Lipophilicity, log D of the compound at pH 7.4. The note with it: buffer.

Converted amounts (≈) assume the structure as drawn.

On to `C[C@H]1CN(c2cccc3nc(-c4nc(-c5cccc(C(=O)N(C)C)c5)cnc4N)n(C)c23)CCN1`, for which, in series [1], the solubility was 201 µM (≈ 94.6 µg/mL). Also, in series [2], the log distribution coefficient (logD) is 1.7.
